In all, about 350,000 compounds went through this assay and about 6,000 (1.7%) were called active. Inconclusive results, whose numbers are uncertain, are shown with a selection of clear calls. Rule as the data show it: active = CPE inhibition above about 20% (passing the limit was not always enough); inconclusive = no clear call, values can overlap the other calls; tested in BHK-21 cells.
Assay: protection of cells from dengue 2 killing – plate reader, single concentration, primary screen (AID 651640);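 also: 0% = median of neutral control wells and 100% = median of positive control wells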
Settings: DENV2-infected cells, cytopathic effect rescue, at 9.99 µM, stronger effect = higher value

Structure (SMILES) | CPE inhibition
CN(C(=O)c1cccc(NC(=O)Cc2ccc(NC(=O)C3CCCN(C(=O)C4CCCCC4)C3)cc2)c1)C1CCCCC1 (stereo not given) | inconclusive: 28.7%
CCCc1cc(C(=O)Nc2ccc(C(C)=O)cc2)no1 | inconclusive: 35.4%
OC[C@H]1[C@H](c2ccc(Br)cc2)[C@@H]2CN(Cc3cncnc3)CCCCN12 | inconclusive: 28.1%
O=C1NC(=S)NC1=Cc1ccco1 | inconclusive: 32.9%
O=C(Nc1cc(F)ccc1F)N1CCCCN2[C@H](C1)[C@H](c1ccc(-c3ccccc3)cc1)[C@@H]2CO | active: 36.3%
O=C1CNC[C@H]2[C@@H](c3ccc(C#Cc4cccnc4)cc3)[C@@H](CO)N12 | inconclusive: 26.2%
CCCCNc1c(-c2ccc(-c3ccc(C(C)=O)cc3)c(OC)c2)nc2cc(C)ccn12 | active: 60.9%
COC(=O)c1sc(-c2ccc(C(C)(C)C)cc2)cc1NC(=O)c1ccccc1C(=O)O | inactive: 1.07%
O=C(Cc1ccc(F)cc1)OCC(=O)N1CCN(S(=O)(=O)c2ccc(Cl)cc2)CC1 | inactive: -1.09%
CCOC(=O)C1CCN(C(=O)c2ccc(N3CCCC3=O)cc2)CC1 | inconclusive: 47.3%
CCC(=O)Nc1ccc2c(c1)C(=O)N(C)C[C@@H](OC)[C@H](C)CN(C(=O)c1ccccn1)[C@@H](C)CO2 | active: 27.4%
C[C@@H]1CN([C@H](C)CO)C(=O)c2cc(NS(=O)(=O)c3ccc(F)cc3)ccc2O[C@@H](C)CCCCO[C@H]1CN(C)Cc1ccncc1 | active: 50.6%
CCCC#Cc1ccc2c(c1)[C@@H]1[C@@H](CCN1S(=O)(=O)c1ccccc1C)[C@@H](CO)N2 | active: 65.7%
CCc1cccc(C)c1NC(=O)COC(=O)CSCc1ccccc1 | inconclusive: 20.7%
CCC(=O)N1CC[C@@H]2[C@@H](CO)N(C)c3ccc(-c4ccccc4F)cc3[C@@H]21 | inconclusive: 50.3%
CC(C)(C)c1ccc(NC(=O)NC2CCCc3ccccc32)cc1 (stereo not given) | active: 39.4%
Cc1ccc(C2(C)NC(=O)N(CC(=O)Nc3ccccc3C(=O)NC3CCCC3)C2=O)cc1 (stereo not given) | active: 62.2%
C[C@H](CO)N1C[C@H](C)[C@@H](CN(C)C(=O)Nc2ccc(C(F)(F)F)cc2)Oc2ccc(NC(=O)Nc3ccc(F)cc3)cc2CC1=O | inactive: -2.49%
CCN(CC(=O)Nc1c(F)cccc1F)C(=O)c1ccc(S(=O)(=O)N(CC)c2ccccc2)cc1 | inconclusive: 22.4%
Cc1ccccc1-c1ccc2c(c1)O[C@H](CN(C)C)[C@@H](C)CN([C@H](C)CO)S2(=O)=O | inconclusive: 20.6%
O=C(CSc1ncccn1)NC(=O)c1ccccc1 | inconclusive: 29.7%
C=C[C@@H]1c2ccccc2N(S(=O)(=O)c2ccc(C)cc2)[C@H](c2ccccc2C(F)(F)F)C1(C#N)C#N | inconclusive: 51.8%
CC(C)n1c(CN2CCN(C(=O)c3ccco3)CC2)nc2c1c(=O)n(C)c(=O)n2C | inconclusive: 49.1%
CC(/C=N/NC(=O)c1nn(C)c(C)c1Br)=C\c1ccccc1 | active: 25%
CCCCN(C(=O)Nc1ccccc1)C1CCS(=O)(=O)C1 (stereo not given) | inconclusive: 60.7%

An excerpt of these results, as comma-separated lines.
Structure (SMILES),CPE inhibition
C[C@@H]1CN([C@H](C)CO)C(=O)c2cc(NS(=O)(=O)c3ccc(F)cc3)ccc2O[C@@H](C)CCCCO[C@H]1CN(C)Cc1ccncc1,active: 50.6%
CCCC#Cc1ccc2c(c1)[C@@H]1[C@@H](CCN1S(=O)(=O)c1ccccc1C)[C@@H](CO)N2,active: 65.7%

The listing continues.

Structure (SMILES) | CPE inhibition
CCOc1ccc(NC(=O)CN(C)C(=O)c2cc([N+](=O)[O-])ccc2N2CCCCC2)cc1OCC | inactive: -2.81%
O=c1oc2cc(O)ccc2cc1-c1ccccc1 | inconclusive: 20.7%
N#CCCn1nc(Cc2cccc3ccccc23)c(C#N)c1N | inconclusive: 25.2%
CN(C)CC(=O)N1[C@H](C#N)[C@@H](c2ccc(C#CC3CCCCC3)cc2)[C@H]1CO | inconclusive: 40.2%
C[C@@H]1CN([C@@H](C)CO)C(=O)c2c(c3ccccc3n2C)-c2ccccc2CO[C@H]1CN(C)C(=O)Nc1ccc(-c2ccccc2)cc1 | inconclusive: 20.7%
COc1cccc(NC(=O)C2CCOC2=O)c1 (stereo not given) | inconclusive: 29.7%
COc1ccc2nc(SCC(=O)N(C)CC(=O)Nc3ccc(F)cc3)[nH]c2c1 | inconclusive: 38.2%
CC1CCN(S(=O)(=O)c2ccc(C(=O)Nc3nnc(C4=COCCO4)o3)cc2)CC1 | inactive: -2.8%
COCCNC(=O)C1CCC(CNS(=O)(=O)c2ccc(F)cc2)CC1 (stereo not given) | active: 34%
N/C(Cc1ccc(Cl)cc1Cl)=N\OC(=O)c1ccccc1F | inactive: -1.29%
O=C(NC[C@H]1CC[C@@H]2[C@@H](CN2S(=O)(=O)c2ccccc2[N+](=O)[O-])O1)c1cccnc1 | inactive: 11.9%
O=C(CNS(=O)(=O)c1cccc2nsnc12)NCCc1ccccc1 | inactive: 2.46%
COc1ccc(OC)c(S(=O)(=O)NCc2nc3nc(C)cc(C)n3n2)c1 | inconclusive: 25.6%
O=c1[nH]c(-c2ccccn2)nc(C(F)(F)F)c1Br | inactive: 0.391%
O=C1Nc2c(ccc(Cl)c2Cl)C(=O)C1(F)c1ccccc1 (stereo not given) | inconclusive: 23.3%
C[C@@H]1CN([C@@H](C)CO)C(=O)c2cc(NC(=O)Nc3ccc(F)cc3)ccc2O[C@@H](C)CCCCO[C@@H]1CN(C)C(=O)Nc1ccc2c(c1)OCO2 | active: 23%
OCCN(CC#CC(O)(c1ccccc1)C1CCCCC1)CCO (stereo not given) | inactive: 3.47%
CCOC(=O)N1CCN(C(=O)COC(=O)CSc2ccc([N+](=O)[O-])cc2)CC1 | inconclusive: 26.9%
COC(=O)c1cc(CNC(=O)c2ccc(O)c(Cl)c2)ccc1OC | inconclusive: 26.8%
CCCNC(=O)Nc1ccc2c(c1)C(=O)N(C)C[C@H](OC)[C@@H](C)CN[C@H](C)CO2 | inconclusive: 47.6%
C[C@@H]1CN([C@@H](C)CO)C(=O)c2cc(C#Cc3ccccc3F)cnc2O[C@H]1CN(C)C(=O)C1CCC1 | inactive: 2.23%
Clc1ccccc1Nc1nc(NCC2CC2)nc2ccsc12 | inconclusive: 38.3%
COc1ccc(C)cc1S(=O)(=O)NCCN1CCOCC1 | inactive: 1.83%
O=C(Nc1ccccc1F)N1C[C@H]2[C@@H](c3ccccc31)[C@H](CO)N2C(=O)C1CCCC1 | inactive: -14.5%
Cc1ccc(S(=O)(=O)N(C)C[C@H]2OCCCC[C@H](C)Oc3ccc(NS(=O)(=O)c4ccccc4)cc3C(=O)N([C@@H](C)CO)C[C@@H]2C)cc1 | inactive: -5.4%

From PubChem BioAssay AID651640 (Broad Institute, 2012)
